Source: patent publication US12349708B2, “Use and methods of 1,3-propanediol to improve taste and/or off-taste qualities” (Primient Covation LLC, priority 2019, dated 2025)

System: experienced and trained panelist
Test: Sensorial comparison of energy shot prototypes at various malic acid and sucralose levels with and without bioPDO (Example 5)
Assay type: in vivo, human
Details: 0.1% bioPDO; midpoint between Exp #8 and Exp #9
Description: • 1. Take 1st sip from a full 30 mL medicine cup, taste and swallow the 1st sample, wait 10 seconds, then take a 2nd sip and lock it into memory. Wait for 10 seconds. • 2. Proceed with 2nd sample. Taste 1st sip of the 2nd sample, wait for 10 seconds, and then use the 2nd sip to compare to the 2nd sip (or 3rd sip) of the 1st sample.
Each paired sample evaluation was repeated in triplicate with at least a 10-minute break and a carbon-treated water rinse.
The theory is to try to establish a reduced amount (concentration) of malic acid to match its sourness intensity of our energy shot prototype w/bioPDO to the control, energy shot prototype without bioPDO. Secondly, if this adjustment of lowering the malic acid concentration results in increasing sweetness, an additional step will be performed to reduce the amount of sucralose until both sourness and sweetness taste match that of the control w/o bioPDO. Below are the comparative sensorial evaluation results in Tables 33-36 including their specific sample formulations, observations, and results. Keywords of SUL, MA and CAF are sucralose, malic acid, and caffeine, respectively.

With `OCCCO` [PDO, 1,3-propanediol] the “reduction of malic acid concentration achievable” value was no more than 38% and the “reduction of sucralose concentration achievable” value was no more than 20%.
